Measured values from PubChem BioAssay AID588590 (National Center for Advancing Translational Sciences (NCATS), 2011).
The whole screen tested about 390,000 compounds, of which about 4,000 (1%) were called active. Inconclusive means that the source gave no clear call. Such entries were picked first, then a sample of the others. The call rests on the fitted dose curve; in most records, active means well fitted inhibition curve with a large enough effect; inconclusive means small, poorly fitted or top-dose-only effect, or another doubt; inactive means no such curve, though single readings can be large or run the other way. A potency beside an inconclusive call is a rough fit, not a confirmed value.

Sequences of proteins named here, by UniProt entry; tags and fusion partners are left off. A change or cut given only in a name is not applied to a line headed by its entry.
UniProt Q9UNA4: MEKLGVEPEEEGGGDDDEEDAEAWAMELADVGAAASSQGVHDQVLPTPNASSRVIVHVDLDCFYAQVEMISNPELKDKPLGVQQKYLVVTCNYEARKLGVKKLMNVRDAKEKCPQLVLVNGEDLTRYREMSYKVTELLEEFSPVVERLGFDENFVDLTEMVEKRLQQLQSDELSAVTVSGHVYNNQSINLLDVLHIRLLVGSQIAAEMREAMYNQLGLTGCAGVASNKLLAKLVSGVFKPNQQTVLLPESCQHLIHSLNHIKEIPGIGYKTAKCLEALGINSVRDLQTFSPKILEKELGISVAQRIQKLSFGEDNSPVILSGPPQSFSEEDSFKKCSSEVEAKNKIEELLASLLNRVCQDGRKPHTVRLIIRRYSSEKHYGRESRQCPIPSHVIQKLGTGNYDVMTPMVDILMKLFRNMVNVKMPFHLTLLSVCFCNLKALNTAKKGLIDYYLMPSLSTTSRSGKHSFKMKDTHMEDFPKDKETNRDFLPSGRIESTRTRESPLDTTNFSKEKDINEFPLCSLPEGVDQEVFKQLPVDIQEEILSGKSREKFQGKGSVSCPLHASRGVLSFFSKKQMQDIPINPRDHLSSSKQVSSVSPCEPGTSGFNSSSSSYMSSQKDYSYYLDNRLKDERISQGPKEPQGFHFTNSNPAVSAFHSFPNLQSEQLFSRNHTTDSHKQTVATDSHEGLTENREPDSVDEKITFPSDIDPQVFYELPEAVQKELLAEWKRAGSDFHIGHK

Target: DNA polymerase iota (Homo sapiens) (UniProt Q9UNA4)
Assay: qHTS for Inhibitors of Polymerase Iota
Conditions: Pol iota fluorescent replication assay, 10 min; series mostly up to 115 µM
In short: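 Fluorescent replication assay read twice, at 0 min and 10 min after adding 50 nM (final) substrate. Enzyme (10 nM) and compounds were first incubated 15 min at room temperature; enzyme-free buffer wells were negative controls.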
Potency means the concentration at half of the fitted maximal effect.

Question: `Cc1nc(-c2ccc(Cl)cc2)sc1C1(C)CC(c2cccc(Cl)c2)=NO1` (stereo not drawn) was tested. Which Potency did it give?
Answer: inconclusive: 17.8 µM [inhibitor, single point]

Question: `O=C(CCl)N1CCCC1c1ccc2c(c1)OCCO2` (stereo not drawn) was tested. Which Potency did it give?
Answer: inconclusive: 22.4 µM [inhibitor, partial curve, poor fit]

Question: For `CCOC(=O)c1cc(-c2ccc3c(c2)OCCO3)n[nH]1`, which Potency is on record?
Answer: inconclusive: 89.1 µM [inhibitor, partial curve, poor fit]

Question: With `Cc1ccc(S(=O)(=O)c2nc(-c3ccccc3Cl)oc2N2CCCCCC2)cc1` as the compound, how does the Potency read?
Answer: inconclusive: 25.1 µM [inhibitor, partial curve, poor fit]

Question: `O=C(NC1CCCCC1)N1CCC(n2cnc3ccccc32)CC1` was tested. Which Potency did it give?
Answer: inconclusive: 39.8 µM [inhibitor, single point]

Question: `N#Cc1ccc(N=c2ssnc2Cl)cc1` was tested. Which Potency did it give?
Answer: inconclusive: 25.1 µM [inhibitor, single point]

Question: For `O=C(NCc1ccco1)C12CN(Cc3ccccc3)CC1C(c1ccc([N+](=O)[O-])cc1)=NO2` (stereo not drawn), which Potency is on record?
Answer: inconclusive: 8.91 µM [inhibitor, full curve]

Question: For `COCCCNC(=O)c1cccs1`, which Potency is on record?
Answer: inconclusive: 39.8 µM [inhibitor, single point]

Question: For `O=C(NCc1cccc(Cl)c1)c1cnn2c1NC(c1ccco1)CC2C(F)(F)F` (stereo not drawn), which Potency is on record?
Answer: inconclusive: 79.4 µM [inhibitor, single point]

Question: Which Potency does the source give for `COC(=O)CSc1nc(-c2ccccc2)nc2ccc(F)cc12` here?
Answer: inactive

Question: With `CCN(CC)C(=O)CSC1=Nc2ccccc2C2=NC(c3ccccc3)C(=O)N12` (stereo not drawn) as the compound, how does the Potency read?
Answer: inconclusive: 112 µM [inhibitor, partial curve, poor fit]

Question: `CCCC(=O)N=C1SC2CS(=O)(=O)CC2N1c1ccc(-c2nc3ccc(C)cc3s2)cc1` (stereo not drawn) was tested. Which Potency did it give?
Answer: inconclusive: 112 µM [inhibitor, single point]

Question: With `CC(C)Oc1ccc(CNC(=O)C2CCCN(S(=O)(=O)N3CCOCC3)C2)cc1` (stereo not drawn) as the compound, how does the Potency read?
Answer: inactive

Question: `CN1CCN(C(=O)c2cc(COc3ccc(F)cc3Cl)on2)CC1c1ccccc1` (stereo not drawn) was tested. Which Potency did it give?
Answer: inconclusive: 56.2 µM [inhibitor, partial curve, poor fit]

Question: With `C[C@H]1CCC(=O)N([C@H](CC#N)Cc2ccccc2)CC1` as the compound, how does the Potency read?
Answer: inconclusive: 89.1 µM [inhibitor, partial curve, poor fit]

Question: With `Cc1nnc(N/N=C\c2ccc(-c3ccccc3[N+](=O)[O-])o2)n1N` as the compound, how does the Potency read?
Answer: active: 3.98 µM

Question: Which Potency does the source give for `Cc1cc(C(=O)COC(=O)c2ccc(Cl)c(S(N)(=O)=O)c2)c(C)n1C1CC1` here?
Answer: inconclusive: 22.4 µM [inhibitor, partial curve, poor fit]

Question: Which Potency does the source give for `COc1ccc(NC(=O)CCc2nnc3n(C)c(=O)c4sccc4n23)cc1Cl` here?
Answer: inactive

Question: Which Potency does the source give for `Cc1cc(C)cc(NC(=O)Nc2ccc3c(c2)N(C)C(=O)CS3)c1` here?
Answer: inconclusive: 22.4 µM [inhibitor, single point]

Question: Which Potency does the source give for `COC(=O)CNc1nc(Cl)nc(N2CCC(C)CC2)n1` here?
Answer: inconclusive: 31.6 µM [inhibitor, single point]

Question: For `CC(=O)Oc1ccc2c(=O)c(/C=N/c3cc(=O)[nH]c(=S)[nH]3)coc2c1`, which Potency is on record?
Answer: inconclusive: 25.1 µM [inhibitor, full curve, poor fit]

Question: Which Potency does the source give for `COc1ccc(-c2nc(-c3ccccn3)no2)cc1` here?
Answer: inactive

Question: For `COc1cccc(NC(=O)c2cc(-c3ccco3)nc3ccccc23)c1`, which Potency is on record?
Answer: inconclusive: 15.8 µM [inhibitor, partial curve, poor fit]

Question: `CCCCCCSc1nc(O)c(C2OC(=O)c3c2ccc(OC)c3OC)c(=O)n1-c1ccccc1` (stereo not drawn) was tested. Which Potency did it give?
Answer: inconclusive: 8.91 µM [inhibitor, full curve, poor fit]

Question: With `CCC(C)(C)n1nnnc1C(c1cc2cc(C)ccc2[nH]c1=O)N1CCCC1` (stereo not drawn) as the compound, how does the Potency read?
Answer: inconclusive: 20 µM [inhibitor, partial curve, poor fit]

Question: For `O=C(CN1C(=O)S/C(=C/c2ccncc2)C1=O)N1CCOCC1`, which Potency is on record?
Answer: inactive

Question: How did the Potency turn out when `CCCOc1cccc(C2/C(=C(\O)c3ccc4c(c3)OCCO4)C(=O)C(=O)N2CCCn2ccnc2)c1` (stereo not drawn) was run?
Answer: inconclusive: 12.6 µM [inhibitor, partial curve, poor fit]

Question: `CCOc1ccc(NC(=O)c2cc(S(=O)(=O)N3CCCCC3)c[nH]2)cc1` was tested. Which Potency did it give?
Answer: inconclusive: 39.8 µM [inhibitor, single point]

Question: With `CCn1c(=O)c2cc(C(=O)N(C)c3ccc(OC)cc3OC)sc2c2ccccc21` as the compound, how does the Potency read?
Answer: inconclusive: 0.631 µM [inhibitor, full curve]

Question: How did the Potency turn out when `COc1cc(OC)cc(C(=O)NNC(=O)c2cc3ccccc3cc2O)c1` was run?
Answer: inconclusive: 31.6 µM [inhibitor, partial curve]

Question: For `Cc1cc(C)c2nc3c(c(C(=O)O)c2c1)CCC3`, which Potency is on record?
Answer: inconclusive: 89.1 µM [inhibitor, single point]

Question: How did the Potency turn out when `COc1ccc(Nc2nnc(-c3ccc(C(N)=O)cc3)c3ccccc23)cc1` was run?
Answer: inactive

Question: With `CN(Cc1c(O)ccc2c1oc(=O)c1ccccc12)C1CCCCC1` as the compound, how does the Potency read?
Answer: inconclusive: 2.51 µM [inhibitor, full curve, poor fit]

Question: With `CSc1ccc(/C=C2\C=Cc3ccc([N+](=O)[O-])cc32)cc1` as the compound, how does the Potency read?
Answer: inactive

Question: For `Cc1ccc2cc3cc(C(=O)NCCCN4CCCC4)oc3nc2c1`, which Potency is on record?
Answer: inconclusive: 56.2 µM [inhibitor, partial curve, poor fit]

Question: With `COc1cccc(NS(=O)(=O)c2ccc3[nH]cc(C(=O)NCCc4ccccc4)c(=O)c3c2)c1` as the compound, how does the Potency read?
Answer: active: 79.4 µM

Question: How did the Potency turn out when `COc1ccccc1NC(=O)COC(=O)C1CCCC1` was run?
Answer: inconclusive: 35.5 µM [inhibitor, partial curve, poor fit]

Question: With `Nc1cc(=O)nc(SCC(=O)Nc2ccccc2)n1-c1ccccc1` as the compound, how does the Potency read?
Answer: inactive

Question: For `Cc1nc2ccc(Cl)cc2c(-c2ccccc2)c1CC(=O)O`, which Potency is on record?
Answer: inactive

Question: Which Potency does the source give for `NC(=O)C1CCN(C(c2ccccc2F)c2nnnn2Cc2ccco2)CC1` (stereo not drawn) here?
Answer: inconclusive: 28.2 µM [inhibitor, single point]

Question: How did the Potency turn out when `COc1ccc(Oc2cn[nH]c2-c2ccc(OCC(=O)NN)cc2O)cc1` was run?
Answer: inconclusive: 20 µM [inhibitor, single point]

Question: For `CNC[C@H]1Oc2ccc(NC(=O)Nc3ccccc3)cc2CC(=O)N([C@H](C)CO)C[C@H]1C`, which Potency is on record?
Answer: inconclusive: 3.98 µM [inhibitor, partial curve, poor fit]

Question: `Cc1ccc(C)c(NC(=O)Cn2c(=O)nc(-c3ccccc3)c3ccccc32)c1` was tested. Which Potency did it give?
Answer: inactive

Question: With `S=c1[nH]nc(-c2ccco2)n1Cc1ccccc1` as the compound, how does the Potency read?
Answer: inactive

Question: How did the Potency turn out when `CC(=O)c1sc(C(=O)O)c(-c2ccco2)c1-c1ccco1` was run?
Answer: inconclusive: 12.6 µM [inhibitor, full curve, poor fit]

Question: Which Potency does the source give for `CCOc1ccc(CNC(=O)CCCn2nc(C)c3sc4ccccc4c3c2=O)cc1` here?
Answer: active: 89.1 µM

Question: `COc1ccc(-c2cc(=O)oc3cc(OC(C)C(=O)NC(Cc4c[nH]c5ccc(O)cc45)C(=O)O)ccc23)cc1` (stereo not drawn) was tested. Which Potency did it give?
Answer: inactive

Question: For `Cc1csc(NC(=O)/C=C/c2ccc3c(c2)OCO3)n1`, which Potency is on record?
Answer: inactive

Question: With `COc1ccc(C(=O)Cn2c(NCCO)nc3ccccc32)cc1OC` as the compound, how does the Potency read?
Answer: inconclusive: 89.1 µM [inhibitor, single point]

Question: How did the Potency turn out when `CS(=O)(=O)N(CC(=O)Nc1ccc(Br)cc1)c1ccccc1Br` was run?
Answer: inactive

Question: Which Potency does the source give for `CCCNC(=O)NC(=O)CSc1nncs1` here?
Answer: inconclusive: 89.1 µM [inhibitor, single point]

Question: How did the Potency turn out when `Cc1nn(C)c2c1c(-c1ccccc1)cc(=O)n2Cc1ccccc1Cl` was run?
Answer: inactive

Question: `CCCCC(CC)CNC(=O)CN(C)S(=O)(=O)c1ccc2c(c1)c(=O)n(C)c(=O)n2C` (stereo not drawn) was tested. Which Potency did it give?
Answer: inactive

Question: For `O=[N+]([O-])c1cc(Br)cc(C=Nc2ccc3c(c2)OCO3)c1O`, which Potency is on record?
Answer: inconclusive: 31.6 µM [inhibitor, single point]

Question: Which Potency does the source give for `S=C1NCCc2ccccc2C1c1ccccc1` (stereo not drawn) here?
Answer: inactive

Question: For `Nc1nc(-c2ccc3c(c2)NC(=O)CO3)cs1`, which Potency is on record?
Answer: inconclusive: 3.16 µM [inhibitor, full curve, poor fit]

Question: How did the Potency turn out when `CCOC(=O)C1=C(C)NC(C)=C(C(=O)OCC)C1C(=O)OCC(=O)N1CC(C)OC(C)C1` (stereo not drawn) was run?
Answer: inconclusive: 79.4 µM [inhibitor, single point]

Question: With `N#C/C(=C\c1ccncc1)c1nc2ccccc2c(=O)[nH]1` as the compound, how does the Potency read?
Answer: inconclusive: 28.2 µM [inhibitor, partial curve, poor fit]

Question: With `COc1ccc(NS(=O)(=O)c2cc(NC(=O)c3cc(F)c(F)cc3Cl)ccc2N2CCOCC2)cc1` as the compound, how does the Potency read?
Answer: inconclusive: 89.1 µM [inhibitor, partial curve, poor fit]

Question: Which Potency does the source give for `Nc1nnnn1/N=C/c1ccccc1` here?
Answer: inactive

Question: How did the Potency turn out when `Cc1ccc(N(C)S(=O)(=O)c2cc(-c3cnc(C4CC4)o3)ccc2C)cc1` was run?
Answer: inconclusive: 44.7 µM [inhibitor, partial curve, poor fit]

Question: How did the Potency turn out when `COc1ccc(-n2nc([N+](=O)[O-])c(=NCCc3ccc(Cl)cc3)n2O)cc1` was run?
Answer: inconclusive: 39.8 µM [inhibitor, single point]

Question: `CN(C)c1nc(C=C(C#N)C#N)c(Cl)n1-c1ccc(F)cc1` was tested. Which Potency did it give?
Answer: inconclusive: 17.8 µM [inhibitor, single point]

Question: How did the Potency turn out when `O=C(CSc1nc2nc(-c3cccs3)cc(C(F)(F)F)c2c(=O)[nH]1)Nc1ccc(F)c(F)c1` was run?
Answer: inconclusive: 50.1 µM [inhibitor, partial curve]

Question: For `Cc1[nH]n(C)c(=O)c1[N+](=O)[O-]`, which Potency is on record?
Answer: inconclusive: 39.8 µM [inhibitor, single point]

Question: `CCOc1ccc(CCNC(=O)Cn2c(=O)c3cccn3c3ccc(F)cc32)cc1OCC` was tested. Which Potency did it give?
Answer: inactive

Question: With `O=C1C(Cl)=C(NCCc2ccccc2)C(=O)c2ccccc21` as the compound, how does the Potency read?
Answer: active: 3.55 µM

Question: With `COc1ccc(/C=C(\C#N)c2nc3ccccc3[nH]2)cc1O` as the compound, how does the Potency read?
Answer: inconclusive: 39.8 µM [inhibitor, partial curve, poor fit]
